Measured values: publication PMC5386385
These are yes or no findings as the source states them, for the method shown. Some binding calls cover weakened binding; strength is not graded here.

Amino acid sequences for entries named in this document (tags omitted). Residues count along the entry.
UniProt Q07820, residues 173-329: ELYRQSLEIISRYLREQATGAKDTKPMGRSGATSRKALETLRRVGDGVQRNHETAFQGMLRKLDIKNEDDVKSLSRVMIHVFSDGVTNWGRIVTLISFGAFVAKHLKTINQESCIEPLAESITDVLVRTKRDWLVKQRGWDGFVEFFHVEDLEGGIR

How the values were obtained:
[1] = molecular target: T1, BAK (human (endogenous in H1299)), Q16611; assay: SEC; H1299 cells exposed to A-1210477 (10 uM), A-1331852 (100 nM) or both; CHAPS lysate on Superose 6 and Superdex S200, fractions immunoblotted (that Figure 4d was done in this way is not said in so many words); conditions: remark: other sources report otherwise
T1 chain: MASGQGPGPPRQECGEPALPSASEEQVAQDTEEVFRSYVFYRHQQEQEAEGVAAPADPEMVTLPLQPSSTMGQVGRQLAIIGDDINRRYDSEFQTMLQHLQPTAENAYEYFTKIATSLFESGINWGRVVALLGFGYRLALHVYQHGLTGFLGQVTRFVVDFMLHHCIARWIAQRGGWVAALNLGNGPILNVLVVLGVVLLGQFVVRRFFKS

[2] = molecular target: WT MCL-1 fusion protein (N-terminal His6-tag fused to amino acids Glu173-Arg329, containing the BH3, BH1 and BH2 domains) (human) (UniProt Q07820); assay: differential scanning fluorimetry (thermal shift assay); purified MCL-1 proteins (10 uM) with or without the indicated concentrations of ligand, Sypro-Orange, thermal ramping 0.3 °C per min between 25 and 94 °C, final DMSO 4% v/v; ΔTm against buffer without peptide; both purified

B1: BAK, Q16611 1-211 (protein)
chain: T1 chain
For B1, the binding [1] was “binds”.

B2: BAD peptide (peptide)
peptide: LWAAQRYGRELRRMSDEFEGSFKGL
For B2, the binding [2] was “no binding”.

B3: HRK peptide (peptide)
peptide: WSSAAQLTAARLKALGDELHQ
In the case of B3, the binding [2] is reported as “no binding”.

B4: PUMA-2A peptide (a negative control) (peptide)
peptide: EQWAREIGAQARRMAADLNA
In the case of B4, the binding [2] is reported as “no binding”.
